Measurements as given in the supplement of paper PMC4604168 (melanoma cell lines).
The list shows a part of the results. Repeats are few or missing, and single values can be far off.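 The apoptosis fraction was the count of cleaved-PARP antibody-stained nuclei relative to all DNA-stained nuclei, imaged in 1,536-well plates. Screening doses were set so most cells survived, and baseline and induced cleaved-PARP levels vary greatly across cell lines.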

The compounds below were run on LB2518-MEL (assay: cleaved PARP positive nuclei fraction relative to DMSO control; melanoma cells; higher = more apoptosis). Details: library dose: low library concentration; 72 h.

Row | SMILES | cleaved PARP positive nuclei fraction
1 | Cn1cnc2c(F)c(Nc3ccc(Br)cc3Cl)c(C(=O)NOCCO)cc21 [selumetinib] + Nc1ccn([C@@H]2O[C@H](CO)[C@@H](O)C2(F)F)c(=O)n1 [gemcitabine] (first compound 0.015 µM, partner dose 0.0004 µM) | 149%
2 | C[C@@H](N)c1ccc(C(=O)Nc2ccnc3[nH]ccc23)cc1 + Cn1c(=O)n(-c2ccc(C(C)(C)C#N)cc2)c2c3cc(-c4cnc5ccccc5c4)ccc3ncc21 [NVP-BEZ235] (first compound 0.4 µM, partner dose 0.004 µM) | 164%
3 | Cn1cnc2c(F)c(Nc3ccc(Br)cc3Cl)c(C(=O)NOCCO)cc21 [selumetinib] + Cn1c(Nc2ccc(C(F)(F)F)cc2)nc2cc(Oc3ccnc(-c4ncc(C(F)(F)F)[nH]4)c3)ccc21 [CHIR265] (first compound 0.015 µM, partner dose 0.08 µM) | 254%
4 | NC1(c2ccc(-c3nc4ccn5c(=O)[nH]nc5c4cc3-c3ccccc3)cc2)CCC1 + Clc1ccc(Nc2nnc(Cc3ccncc3)c3ccccc23)cc1 [vatalanib] (first compound 0.4 µM, partner dose 2 µM) | 110%
5 | CCCCCCCCc1ccc(CCC(N)(CO)CO)cc1 [fingolimod] + OCc1c[nH]c2ccccc12 [Indole-3-carbinol] (first compound 2 µM, partner dose 0.8 µM) | 235%
6 | Cn1sc(=O)n(Cc2ccccc2)c1=O + Clc1ccc(Nc2nnc(Cc3ccncc3)c3ccccc23)cc1 [vatalanib] (first compound 0.4 µM, partner dose 2 µM) | 120%

Reprinted, nos. 4–5
Row | SMILES | cleaved PARP positive nuclei fraction
4 | NC1(c2ccc(-c3nc4ccn5c(=O)[nH]nc5c4cc3-c3ccccc3)cc2)CCC1 + Clc1ccc(Nc2nnc(Cc3ccncc3)c3ccccc23)cc1 [vatalanib] (first compound 0.4 µM, partner dose 2 µM) | 110%
5 | CCCCCCCCc1ccc(CCC(N)(CO)CO)cc1 [fingolimod] + OCc1c[nH]c2ccccc12 [Indole-3-carbinol] (first compound 2 µM, partner dose 0.8 µM) | 235%
